No constants are given. Whether binding was seen depends on the method and setting. Binding seen in cells or lysates may run through a third protein. Some entries that bind do so weakly or less than the wild type. Tags and fused reporters may be left off the sequences shown.

Sequences of proteins named here, by UniProt entry; tags and fusion partners are left off. Residues count along the entry.
UniProt Q15075, residues 1-209: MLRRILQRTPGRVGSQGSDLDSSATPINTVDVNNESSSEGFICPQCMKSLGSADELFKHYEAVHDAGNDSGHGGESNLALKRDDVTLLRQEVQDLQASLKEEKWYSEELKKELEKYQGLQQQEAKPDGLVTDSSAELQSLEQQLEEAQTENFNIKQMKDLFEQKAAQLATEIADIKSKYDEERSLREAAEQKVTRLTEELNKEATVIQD

The target in the test is GST-EEA1^(1–209) (human) (UniProt Q15075). Put plainly: pull-down; GST-EEA1(1-209) bound to glutathione-agarose; lysates of AX2 wild-type and iqgC null cells expressing YFP-Rab5A; 50 mM Tris pH 8, 1 mM EGTA, 40 mM NaCl, 1 mM DTT, 0.5% n-octylpolyoxyethylene; anti-GFP immunoblot; only the target purified. In general terms: Immunoblotting shows a protein as a band on a membrane.

B1: YFP-Rab5A (wild type) (protein, UniProt Q86JP3 1-201)
chain: MNNNNKIFQFKLVLLGEAAVGKSSLVLRFVRGHFLDYQESTIGAAFLAQTVCLNDTTVKFEIWDTAGQERYHTLAPMYYRGAQAAIVVYDIRSEDSFERAIKWVKELQRQGSPNIVIALAGNKLDLAAKRKVETAEAQQYAEENGLLFMETSAKTSQNVNELFVEIAKKLPKTPTTRPGSGRVAIAPIDNGNTGKKNKCCN
Consider B1, for which the binding entry is “binds”.

Values taken from paper PMC10806400.
